Experimental data from publication PMC3672211.
Results are given in words; binding and its absence hold for the method and conditions named. Binding seen in cells or lysates may run through a third protein. For some assays here: Tags and fused reporters may be left off the sequences shown.

Chains of the proteins cited; added tags and fusions are not shown. Residues count along the entry.
UniProt Q0GXS4, residues 28-595: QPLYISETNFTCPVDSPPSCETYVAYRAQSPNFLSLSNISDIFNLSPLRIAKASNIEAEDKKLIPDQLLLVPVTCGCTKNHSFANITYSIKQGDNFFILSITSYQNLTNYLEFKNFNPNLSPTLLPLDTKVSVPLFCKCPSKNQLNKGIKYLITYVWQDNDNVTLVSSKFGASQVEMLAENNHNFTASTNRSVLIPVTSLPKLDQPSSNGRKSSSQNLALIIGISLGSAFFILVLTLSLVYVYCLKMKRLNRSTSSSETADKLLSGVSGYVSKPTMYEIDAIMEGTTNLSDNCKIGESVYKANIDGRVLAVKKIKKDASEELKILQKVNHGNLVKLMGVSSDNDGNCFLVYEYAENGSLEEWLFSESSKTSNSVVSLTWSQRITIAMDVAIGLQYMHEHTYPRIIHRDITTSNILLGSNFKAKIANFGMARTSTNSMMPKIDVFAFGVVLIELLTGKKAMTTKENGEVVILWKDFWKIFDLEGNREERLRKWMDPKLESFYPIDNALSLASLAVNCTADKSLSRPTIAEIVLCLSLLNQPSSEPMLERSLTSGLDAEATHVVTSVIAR
UniProt O22476, residues 24-1196: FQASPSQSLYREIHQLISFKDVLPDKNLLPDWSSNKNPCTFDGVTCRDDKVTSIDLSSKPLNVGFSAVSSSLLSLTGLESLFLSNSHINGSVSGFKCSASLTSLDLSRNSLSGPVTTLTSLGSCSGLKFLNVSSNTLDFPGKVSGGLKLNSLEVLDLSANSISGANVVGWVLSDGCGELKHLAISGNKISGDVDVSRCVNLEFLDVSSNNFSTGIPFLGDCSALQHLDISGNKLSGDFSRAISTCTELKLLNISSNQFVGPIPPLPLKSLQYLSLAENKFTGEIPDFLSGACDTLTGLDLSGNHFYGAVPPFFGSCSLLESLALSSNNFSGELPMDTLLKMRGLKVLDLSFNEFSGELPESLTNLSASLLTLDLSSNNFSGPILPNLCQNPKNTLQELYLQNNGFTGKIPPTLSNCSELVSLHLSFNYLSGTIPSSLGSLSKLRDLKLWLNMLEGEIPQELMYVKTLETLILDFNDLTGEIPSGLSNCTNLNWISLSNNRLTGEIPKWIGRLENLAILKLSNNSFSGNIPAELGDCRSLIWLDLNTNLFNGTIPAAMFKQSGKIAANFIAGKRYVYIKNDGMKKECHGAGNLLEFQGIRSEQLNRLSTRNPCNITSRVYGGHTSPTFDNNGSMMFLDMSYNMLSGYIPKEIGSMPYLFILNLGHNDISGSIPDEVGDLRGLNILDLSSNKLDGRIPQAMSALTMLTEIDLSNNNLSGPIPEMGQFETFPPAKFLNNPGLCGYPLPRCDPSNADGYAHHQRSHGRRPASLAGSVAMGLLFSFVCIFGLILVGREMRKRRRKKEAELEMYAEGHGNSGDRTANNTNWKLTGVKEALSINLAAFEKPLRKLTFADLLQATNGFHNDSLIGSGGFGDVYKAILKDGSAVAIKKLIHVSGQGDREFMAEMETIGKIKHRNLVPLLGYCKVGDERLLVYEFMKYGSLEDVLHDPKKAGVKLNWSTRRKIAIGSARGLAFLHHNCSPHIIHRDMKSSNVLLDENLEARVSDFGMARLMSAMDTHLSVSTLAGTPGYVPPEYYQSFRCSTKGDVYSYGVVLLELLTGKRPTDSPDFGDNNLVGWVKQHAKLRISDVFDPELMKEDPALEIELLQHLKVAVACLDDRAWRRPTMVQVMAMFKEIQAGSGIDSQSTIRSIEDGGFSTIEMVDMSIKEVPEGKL

How the values were obtained:
[1] = target: T1, MtLYK3-YFP N (Medicago truncatula LysM domain-containing Receptor-Like Kinase 3 fused to the N-terminal part of split YFP) (Medicago truncatula) (UniProt Q6UD73); experiment: split reporter; BiFluorescence Complementation in Nicotiana benthamiana leaves; Agrobacterium transformants with YFP C and YFP N constructs co-infiltrated at high optical densities (final OD600 = 0.5 each); YFP fluorescence by microscopy
T1 sequence: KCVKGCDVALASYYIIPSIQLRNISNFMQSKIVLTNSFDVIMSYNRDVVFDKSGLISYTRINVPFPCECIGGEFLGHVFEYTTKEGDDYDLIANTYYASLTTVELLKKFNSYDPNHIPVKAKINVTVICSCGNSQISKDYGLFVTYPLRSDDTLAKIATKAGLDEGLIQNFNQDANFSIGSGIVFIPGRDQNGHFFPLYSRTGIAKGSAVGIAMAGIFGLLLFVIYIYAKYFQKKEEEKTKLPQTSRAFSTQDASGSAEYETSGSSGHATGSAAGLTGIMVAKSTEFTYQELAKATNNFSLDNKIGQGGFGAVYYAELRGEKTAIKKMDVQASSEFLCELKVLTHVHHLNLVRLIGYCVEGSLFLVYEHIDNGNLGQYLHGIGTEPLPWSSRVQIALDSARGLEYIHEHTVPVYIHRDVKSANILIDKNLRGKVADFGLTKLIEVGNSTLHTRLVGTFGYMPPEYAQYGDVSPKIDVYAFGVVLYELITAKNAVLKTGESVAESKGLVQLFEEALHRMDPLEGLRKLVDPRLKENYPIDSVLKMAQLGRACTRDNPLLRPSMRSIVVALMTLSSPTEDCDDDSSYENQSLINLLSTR

[2] = target: MtNFP-YFP N (Medicago truncatula Nod Factor Perception fused to the N-terminal part of split YFP) (Medicago truncatula) (UniProt Q0GXS4); experiment: as above

binding [1]: no binding
binding [2]: no binding
Substance: AtBRI1-YFP C (Arabidopsis Brassinosteroid Insensitive 1 fused to the C-terminal part of split YFP) (from UniProt O22476 24-1196) (receptor)
